Experimental data taken from the supplement of paper PMC7858590.
± gives the standard deviation of the averaged measurements. The list shows a part of the results. This data set is noisy: repeats of one test often differ as much as different tests do.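 Macrophages from blood monocytes of four pooled healthy donors, grown with M-CSF, were M1-like and treated with compounds that shifted resting macrophages M2-like in an initial screen. Z-score: t-test of cell eccentricity (~1000 cells/well) versus same-row DMSO wells. Reprogramming means passing the M2 cutoff of +6 from standard cytokine controls (M1 cutoff −4).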

tested on: human monocyte-derived macrophages (polarized); experiment: cell shape (eccentricity) Z-score vs DMSO control; macrophage state: M1-polarized (IFNg + TNFa), cytokines removed before treatment; higher = more elongated, M2-like morphology; conditions: 24 h; 10 µM

Row | SMILES | cell shape (Z-score)
1 | Cc1ccc2c(=O)c3ccccc3n(CCCN)c2c1C | -2.09 ± 2.2
2 | C[C@H]1[C@H](NC(=O)/C(=N\OC(C)(C)C(=O)O)c2csc(N)n2)C(=O)N1S(=O)(=O)O | -9.48 ± 7.7
3 | CCCCCCCCCc1ccc(OCCOCCOCCOCCOCCOCCOCCOCCOCCO)cc1 | 1.22 ± 4.7
4 | O=c1cc(-c2ccccc2F)[nH]c2cc3c(cc12)OCO3 | -0.73 ± 0.76
5 | CC(C)(C)n1nc(-c2cccc3ccccc23)c2c(N)ncnc21 | 10.6 ± 4.4
6 | Cn1cnc(-c2cc3nccc(Oc4ccc(NC(=S)NC(=O)Cc5ccccc5)cc4F)c3s2)c1 | 7.36 ± 0.56
7 | O=Nc1c(-c2c(O)[nH]c3cc(Br)ccc23)[nH]c2ccccc12 | -6.93 ± 6
8 | COc1cc(OC)c(/C=C/S(=O)(=O)Cc2ccc(OC)c(NCC(=O)O)c2)c(OC)c1 | -2.14 ± 0.53
9 | COc1ccc(-c2oc3ccccc3c(=O)c2O)cc1OC | 2.59 ± 6.6
10 | O=c1cc(-c2ccc(O)cc2)oc2cc(O)cc(O)c12 | -0.12 ± 4.2

Arranged by number of heavy atoms (low to high): three of the compounds above
Row | SMILES | cell shape (Z-score)
9 | COc1ccc(-c2oc3ccccc3c(=O)c2O)cc1OC | 2.59 ± 6.6
5 | CC(C)(C)n1nc(-c2cccc3ccccc23)c2c(N)ncnc21 | 10.6 ± 4.4
6 | Cn1cnc(-c2cc3nccc(Oc4ccc(NC(=S)NC(=O)Cc5ccccc5)cc4F)c3s2)c1 | 7.36 ± 0.56
